In publication PMC7665892:
Results are given in words; binding and its absence hold for the method and conditions named. For part of these data: In cells and extracts the contact can be indirect. Some entries that bind do so weakly or less than the wild type. For part of these data: Tags and fused reporters may be left off the sequences shown. Each block holds one molecule with its values, some of them ahead of it.

By UniProt entry, the sequences of proteins in these tests, tags left out. Where a name states a change or a piece, a line headed by the entry shows the natural chain unless it says otherwise. Chains listed by the source or under a name are the forms on record and can include a tag or linker.
UniProt Q01628: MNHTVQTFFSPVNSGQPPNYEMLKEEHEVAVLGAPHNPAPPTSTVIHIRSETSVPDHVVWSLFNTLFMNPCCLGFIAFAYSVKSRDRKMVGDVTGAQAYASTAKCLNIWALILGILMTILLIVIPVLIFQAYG
IFITM3 WT tagged with YFP or mCherry internally after residue 40 (Q01628, form named): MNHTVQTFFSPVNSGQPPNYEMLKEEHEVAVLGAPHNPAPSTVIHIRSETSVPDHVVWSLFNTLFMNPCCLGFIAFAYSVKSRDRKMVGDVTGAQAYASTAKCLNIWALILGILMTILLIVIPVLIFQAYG
IFITM3 G95L tagged with YFP or mCherry internally after residue 40 (Q01628, form named): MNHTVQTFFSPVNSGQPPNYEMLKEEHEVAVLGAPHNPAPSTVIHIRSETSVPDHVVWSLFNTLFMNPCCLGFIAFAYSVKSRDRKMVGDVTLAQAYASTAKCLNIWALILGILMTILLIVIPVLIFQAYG

What was measured:
[1] = target: IFITM3 WT tagged with YFP or mCherry internally after residue 40 (human) (UniProt Q01628); assay: FRET or BRET; FRET index and FLIM of the donor YFP in living HEK293T cells transiently co-transfected with a YFP-tagged and an mCherry-tagged copy; free mCherry with the YFP copy as background; Fluorobrite DMEM
[2] = target: IFITM3 F75A/F78A fused with YFP or mCherry at the amino terminus (human) (UniProt Q01628); assay: as above
[3] = target: IFITM3 S61A/N64A/T65A fused with YFP or mCherry at the amino terminus (human) (UniProt Q01628); assay: as above
[4] = target: IFITM3 WT fused with amino-terminal FLAG or myc (human) (UniProt Q01628); assay: native gel or EMSA; blue native PAGE (4-16% Bis-Tris) of lysates of transfected HEK293T made with 1% digitonin; immunoblot with anti-FLAG
[5] = target: IFITM3 WT fused with amino-terminal FLAG or myc (human) (UniProt Q01628); assay: co-IP; HEK293T co-transfected with FLAG- and myc-tagged copies; lysis in 0.5% IPEGAL, 50 mM Tris pH 7.4, 150 mM NaCl, 1 mM EDTA; anti-FLAG M2 magnetic beads, 3 hr, 4°C; quantitative immunoblot with anti-myc
[6] = target: IFITM3 G95L tagged with YFP or mCherry internally after residue 40 (human) (UniProt Q01628); assay: FRET or BRET; FRET index and FLIM of the donor YFP in living HEK293T cells transiently co-transfected with a YFP-tagged and an mCherry-tagged copy; free mCherry with the YFP copy as background; Fluorobrite DMEM
[7] = target: IFITM3 WT fused with YFP or mCherry at the amino terminus (human) (UniProt Q01628); assay: as above
[8] = target: T1, PRRT2 WT tagged with carboxy-terminal YFP or mCherry (human), Q7Z6L0; assay: as above; details: remark: other sources report otherwise
T1 chain: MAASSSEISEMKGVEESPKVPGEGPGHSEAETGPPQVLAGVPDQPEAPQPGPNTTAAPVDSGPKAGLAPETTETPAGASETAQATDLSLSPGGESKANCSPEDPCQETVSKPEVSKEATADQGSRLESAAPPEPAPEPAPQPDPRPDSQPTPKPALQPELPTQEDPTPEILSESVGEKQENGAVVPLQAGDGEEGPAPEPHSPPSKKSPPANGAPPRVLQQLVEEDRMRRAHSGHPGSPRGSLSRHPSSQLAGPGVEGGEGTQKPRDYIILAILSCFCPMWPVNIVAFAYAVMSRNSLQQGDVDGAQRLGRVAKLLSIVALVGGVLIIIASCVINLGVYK

binding [1]: binds
Molecule: IFITM3 WT tagged with YFP or mCherry internally after residue 40 (from UniProt Q01628 1-133)

binding [3]: binds
Molecule: IFITM3 S61A/N64A/T65A fused with YFP or mCherry at the amino terminus (from UniProt Q01628 1-133)

binding [5]: binds
Molecule: IFITM3 G95L fused with amino-terminal FLAG or myc (from UniProt Q01628 1-133)

binding [8]: binds
B1: PRRT2 WT tagged with carboxy-terminal YFP or mCherry, Q7Z6L0 1-340 (protein)
chain: T1 chain

The remaining lines, values behind:

Molecule: IFITM3 F75A/F78A fused with YFP or mCherry at the amino terminus (from UniProt Q01628 1-133)
binding [2]: binds

Molecule: IFITM3 WT fused with amino-terminal FLAG or myc (from UniProt Q01628 1-133)
binding [4]: binds
binding [5]: binds

Molecule: IFITM3 G95L tagged with YFP or mCherry internally after residue 40 (from UniProt Q01628 1-133)
binding [6]: binds

Molecule: IFITM3 G95L fused with YFP or mCherry at the amino terminus (from UniProt Q01628 1-133)
binding [7]: binds
